{"source": "patent US12527837B2", "about": "“Peptide for use in the prevention and/or treatment of a disease caused by a virus affecting the respiratory tract” (priority 2020, dated 2026)", "key": {"[1]": {"tested_on": "standardised antigens from H1N1 virus", "assay": "Haemagglutination Inhibition Assay (HAI) with standardised antigens of influenza virus subtype H1N1", "assay_type": "cell-based", "conditions": "H1N1 antigens 8 HAU/50 μl; 5% v/v turkey red blood cells; FIG. 2 and FIG. 3"}, "[2]": {"tested_on": "standardised antigens from H3N2 virus", "assay": "Haemagglutination Inhibition Assay (HAI) with standardised antigens of influenza virus subtype H3N2", "assay_type": "cell-based", "conditions": "H3N2 antigens 4 HAU/25 μl; 5% v/v turkey red blood cells; FIG. 2"}}, "note": "“Also recorded” adds a separate entry of the source. At least one peptide structure holds a part that was inferred or is arguable (an end, a ring closure or a residue). No end group written: not given here."}
{"sequence": "SSLLEKGLDGAKKAVGGLGKLGKDAVEDLESVGKGAVHDVKDVLD [SEQ ID No.: 3, SSLLEKGLDGAKKAVGGLGKLGKDAVEDLESVGKGAVHDVKDVLD]", "values": [{"measurement": "activity against standardised antigens of H1N1 subtype of influenza virus (inhibiting haemagglutination)", "setting": "[1]", "value": "had activity"}]}
{"sequence": "LEKGLDGAKKAVGGLGKLGKDAVEDLESVGKGAVHDVKDVLDSVL [SEQ ID No.: 2, LEKGLDGAKKAVGGLGKLGKDAVEDLESVGKGAVHDVKDVLDSVL]", "values": [{"measurement": "activity against standardised antigens of H1N1 subtype of influenza virus (inhibiting haemagglutination)", "setting": "[1]", "value": "had activity"}]}
{"sequence": "SSLLEKGLDGAKKAVGGLGKLGKDAVEDLESVGKGAVHDVKDVLDSVL [SEQ ID No.: 5, SSLLEKGLDGAKKAVGGLGKLGKDAVEDLESVGKGAVHDVKDVLDSVL]", "values": [{"measurement": "activity against standardised antigens of H1N1 subtype of influenza virus (inhibiting haemagglutination)", "setting": "[1]", "value": "active; also recorded: had activity"}, {"measurement": "activity against standardised antigens of H3N2 subtype of influenza virus (inhibiting haemagglutination)", "setting": "[2]", "value": "active"}]}
